# Measurements from paper PMC4677692.
# By UniProt entry, the sequences of proteins in these tests, tags left out.
# UniProt P93002: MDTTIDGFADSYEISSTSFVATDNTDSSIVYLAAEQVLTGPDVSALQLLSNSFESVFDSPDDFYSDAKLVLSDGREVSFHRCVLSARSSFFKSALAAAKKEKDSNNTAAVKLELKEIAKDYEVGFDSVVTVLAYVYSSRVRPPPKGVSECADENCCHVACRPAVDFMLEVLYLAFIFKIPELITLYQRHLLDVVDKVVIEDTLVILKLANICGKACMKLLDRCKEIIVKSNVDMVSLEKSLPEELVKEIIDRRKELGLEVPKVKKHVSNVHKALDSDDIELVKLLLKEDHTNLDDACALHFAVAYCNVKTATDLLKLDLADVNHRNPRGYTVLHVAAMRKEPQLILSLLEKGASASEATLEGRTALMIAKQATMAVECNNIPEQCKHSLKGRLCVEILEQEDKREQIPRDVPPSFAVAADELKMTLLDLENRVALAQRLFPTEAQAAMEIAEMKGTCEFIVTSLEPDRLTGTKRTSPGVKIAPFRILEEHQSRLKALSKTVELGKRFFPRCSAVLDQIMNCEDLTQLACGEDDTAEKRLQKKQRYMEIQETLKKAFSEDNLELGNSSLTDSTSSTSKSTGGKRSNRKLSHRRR
# These are yes or no findings as the source states them, for the method shown. Some results given as binding are weak or reduced against the parent protein; the word gives no strength.
# Biological target: T1, TGA2 (Arabidopsis) (UniProt P43273)
# T1 sequence: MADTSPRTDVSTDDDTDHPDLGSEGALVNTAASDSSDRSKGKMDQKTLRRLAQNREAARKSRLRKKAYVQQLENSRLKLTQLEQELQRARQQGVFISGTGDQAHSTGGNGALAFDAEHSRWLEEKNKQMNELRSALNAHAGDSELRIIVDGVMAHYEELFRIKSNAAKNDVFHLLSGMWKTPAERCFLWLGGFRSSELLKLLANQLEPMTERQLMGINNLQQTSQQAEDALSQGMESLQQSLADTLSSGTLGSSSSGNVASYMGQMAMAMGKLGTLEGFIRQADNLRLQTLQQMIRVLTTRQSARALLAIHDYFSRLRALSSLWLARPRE
# Test: two-hybrid; yeast strain SFY526 with Gal4RE::beta-Gal reporter (four copies of the Gal4-responsive element); Gal4 DNA-binding domain and activation domain fusions; qualitative beta-galactosidase assay
substance,measurement,value
nonexpressor of pathogenesis-related genes 1 (NPR1) (from UniProt P93002 1-593),binding,binds
